Molecules are shown by their SMILES. This is one part of the list. Further columns of the screen follow, without active or inactive calls. The list favours compounds with an active or inconclusive main result. Potencies come from curve fits of mixed quality, noted in brackets.

The nature of this experiment: qHTS Assay for Lipid Storage Modulators in Drosophila S3 Cells.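 For cell number change: cells counted by Cell Tracker Red CMTPX staining in the red channel.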 The conditions noted are these: BODIPY lipid droplet fluorescence, 18-24 h; for cell number change: measured here: cell count max response, cells fed with added oleic acid. The gist of the method: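 Drosophila S3 cells loaded with oleic acid (400 uM, as added) and compounds at several concentrations; lipid droplets imaged by 488-nm laser-scanning cytometry, 500–530 nm intensity and object ratio to cell channel. Percent activity normalized to 20 uM Triacsin C.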
A general note: In qHTS, concentration-response curves come from the screen itself.

Where [1] appears, read: measured here: lipid fluorescence (Fed channel) AC50, cells fed with added oleic acid.
The mark [2] stands for this setting: measured here: cell number channel AC50, cells fed with added oleic acid.

As for `COc1cccc(CN(CC(=O)NC2CCCCC2)C(=O)c2csnn2)c1`, the cell number change is -13.9%. Also, the AC50 (as a rule, the concentration at which the activity in the assay is half-maximal) under setting [1] was 0.116 µM [falling, single point].

As to `CSc1cccc(NS(=O)(=O)c2ccc3c(c2)oc(=O)n3C)c1`, the cell number change was -1.66%. Besides, the half-maximal activity concentration (AC50) under setting [1] was 0.58 µM [rising, single point].

Turning to `COCCNCC#CCOc1ccc(OC)cc1`, the cell number change is -3.51%. Besides, under setting [1], the AC50 was 0.116 µM [falling, full curve, poor fit].

Take `C[C@]12CCC3c4ccc(OCC(=O)O)cc4CCC3C1CCC2=O` (some centres not stated): the cell number change worked out at 7.01%. Also, the AC50 under setting [2] was 1.84 µM [falling, partial curve].

On to `CCCCN(C(=O)CN1C(=O)C2CC=CCC2C1=O)c1c(N)n(CCC)c(=O)[nH]c1=O` (configuration not stated), for which the cell number change was -98.8%. Further, under setting [1], the concentration at half-maximal activity (AC50) is 18.4 µM [falling, single point].

As for `CS(=O)(=O)/C(C#N)=C/c1cccn1S(=O)(=O)c1ccccc1`, the AC50 under setting [1] was 29.1 µM [falling, single point].

Consider `CCN1CCN(c2ccc(NC(=O)c3ccc(Cl)c(S(=O)(=O)N4CCCC4)c3)cc2)CC1`, for which the cell number change was 7.36%. The AC50 under setting [1] is 0.731 µM [falling, single point].

Regarding `Cc1ccc(C(=O)NC(C)c2ccccc2)cc1S(=O)(=O)N1CCOCC1` (configuration not stated), the cell number change amounted to 3.23%.

Consider `CCCCN(C(=O)c1cccc(S(=O)(=O)N2CCN(Cc3ccccc3)CC2)c1)c1ccccc1`, for which the cell number change came to 10.6%. Under setting [1], the half-maximal activity concentration (AC50) is 3.16 µM [rising, single point].

Turning to `Cc1cccc(NC(=S)N2CCN(S(=O)(=O)c3ccc(F)cc3)CC2)c1`, the AC50 under setting [1] was 35.5 µM [rising, partial curve, poor fit].

Turning to `COc1ccc(C2/C(=C(\O)c3ccc4c(c3)OCCO4)C(=O)C(=O)N2c2nc(C)c(C(C)=O)s2)cc1` (configuration not stated), the cell number change is -17.4%. Moreover, the AC50 under setting [1] was 4.11 µM [falling, full curve].

Regarding `CSCCC(NC(=O)COc1ccccc1)C(=O)N1CC(C)CC(C)C1` (configuration not stated), the cell number change came out at 0.0695%. Also, under setting [2], the AC50 is 0.461 µM [rising, partial curve]. In addition, the AC50 under setting [1] was 0.651 µM [rising, full curve].

Consider `O=S(=O)(/N=C(/Nc1ccc(F)cc1F)c1ccccc1)c1ccccc1`, for which the cell number change was -0.262%. Under setting [1], the AC50 was 0.731 µM [rising, full curve, poor fit].

Regarding `COc1ccc(/C=c2\sc3nc(-c4ccccc4OC)nn3c2=O)c(OC)c1`, the cell number change amounted to 30.7%. The AC50 under setting [2] was 10.3 µM [rising, single point].

For `Cc1c(C=O)c2ccccc2n1CC(=O)NC(C)c1ccccc1` (configuration not stated), the cell number change is -0.308%. Further, the AC50 under setting [2] was 0.58 µM [falling, full curve]. In addition, under setting [1], the AC50 was 0.82 µM [falling, full curve].

In the case of `COC(=O)C1=C(C)Nc2c(c(=O)n(C)c(=O)n2C)C1c1ccncc1` (configuration not stated), the cell number change was 30.1%. For the same molecule, the AC50 under setting [2] was 0.731 µM [rising, full curve, poor fit]. The AC50 under setting [1] is 0.058 µM [rising, full curve, poor fit].

For the molecule `O=C(O)c1nnn(-c2cccc(C(F)(F)F)c2)c1-c1ccccc1`, the cell number change is -41.5%. Moreover, the AC50 under setting [2] was 10.3 µM [falling, single point]. For the same molecule, under setting [1], the half-maximal activity concentration (AC50) is 11.6 µM [falling, partial curve].

With `COc1ccc(OCC(=O)N/N=C/C=C/c2ccccc2)cc1`, the cell number change is 1.61%. The AC50 under setting [1] was 2.91 µM [rising, full curve, poor fit].

In the case of `Cc1ccc(S(=O)(=O)CC(=O)NCc2ccc(Cl)cc2)cc1`, the cell number change is 0.125%. In addition, the concentration at half-maximal activity (AC50) under setting [1] is 0.259 µM [falling, full curve].

On to `CCOC(=O)C1=C(C)N(C)C(C)=C(C(=O)OCC)C1c1ccc(C(=O)OC)cc1`, for which the cell number change is -17.4%. Also, the AC50 under setting [2] is 0.231 µM [falling, full curve, poor fit]. In addition, under setting [1], the AC50 was 1.03 µM [falling, full curve].

For `COc1ccc(-c2noc(CN(C)S(=O)(=O)c3ccc(C)cc3)n2)cc1`, the AC50 under setting [2] was 0.13 µM [rising, full curve, poor fit].

As for `COc1cccc(NC(=S)N(Cc2ccccn2)Cc2ccccc2Cl)c1`, the AC50 under setting [1] was 6.51 µM [rising, single point].

For the molecule `CCCCCCC(=O)OCC(=O)c1ccc2c(c1)NC(=O)CO2`, the cell number change worked out at 106%. Besides, the half-maximal activity concentration (AC50) under setting [2] is 32.6 µM [rising, partial curve, poor fit].

Consider `O=C(NCc1cccnc1)/C(=C/c1ccc(Cl)cc1)NC(=O)c1ccccc1`, for which the cell number change was 19.4%.

In the case of `CCn1c(SCc2nc(-c3ccccc3)no2)nnc1-c1cccs1`, the cell number change stood at 41.7%. Moreover, the AC50 under setting [2] is 0.461 µM [rising, full curve]. Also, the concentration at half-maximal activity (AC50) under setting [1] was 29.1 µM [rising, partial curve].

Consider `COc1ccccc1-c1n[nH]c(=S)o1`, for which the cell number change is -7.47%. In addition, the AC50 under setting [1] is 6.51 µM [rising, single point].

Regarding `C=CCN1CN=C(NS(=O)(=O)c2ccc(NC(C)=O)cc2)NC1`, the cell number change was -12.1%.

Regarding `Cc1ccc(CNC(=O)CNC(=S)N(Cc2ccccc2)Cc2ccccc2F)cc1`, the half-maximal activity concentration (AC50) under setting [2] was 2.31 µM [rising, single point].

Take `Cc1nc2nc(C)c(CCC(=O)NCc3ccc4c(c3)OCO4)c(C)n2n1`: the cell number change is -1.04%. Moreover, under setting [2], the AC50 is 6.51 µM [falling, single point].

For `CN(C)C(CNC(=O)CSc1nnc(-c2ccco2)o1)c1ccccc1` (configuration not stated), the cell number change amounted to 1.12%. Further, under setting [1], the concentration at half-maximal activity (AC50) is 3.26 µM [rising, single point].

For `O=C(CSc1nnc(-c2ccccn2)n1-c1ccccc1)Nc1ccc2c(c1)OCO2`, the cell number change was -0.829%. Also, the AC50 under setting [1] is 0.0651 µM [rising, full curve, poor fit].

`Cn1c(CNC(=O)C2CCCCC2)cc2cc(Cl)ccc21`: the cell number change is -22%. Further, the AC50 under setting [1] is 4.61 µM [falling, single point].

With `COc1ccc(NC(=O)c2cc3c([nH]c4ccccc43)c(C)n2)cc1`, the cell number change stood at 8.71%. Moreover, the AC50 under setting [2] is 1.16 µM [rising, partial curve, poor fit]. Under setting [1], the AC50 is 0.00461 µM [rising, full curve, poor fit].

Turning to `COc1ccccc1-c1cc(C(=O)N2CCN(c3ccc(F)cc3)CC2)no1`, the cell number change was 18%. In addition, the AC50 under setting [1] was 1.64 µM [rising, partial curve].

Regarding `Cc1cc2c(C)nc(N/N=C/c3ccccc3)nc2o1`, the cell number change turned out to be 1.75%. Under setting [2], the AC50 is 3.26 µM [rising, single point]. The AC50 under setting [1] was 20.6 µM [rising, single point].

For the molecule `O=C1N2CCSC2=NC1(NS(=O)(=O)c1ccccc1)C(F)(F)F` (configuration not stated), the cell number change was -38.3%. The AC50 under setting [2] was 0.92 µM [falling, full curve]. Also, the AC50 under setting [1] was 6.51 µM [falling, single point].

Take `COc1cc2c(cc1OC)CN(C(=O)C(CCSC)NS(=O)(=O)c1ccc(C)cc1)CC2` (configuration not stated): the cell number change turned out to be 37.8%. Also, the AC50 under setting [2] is 29.1 µM [rising, single point].

`S=c1[nH]ncn1/N=C/c1cccc(Oc2ccccc2)c1`: the cell number change was -30.1%. The AC50 under setting [2] is 20.6 µM [falling, single point]. In addition, under setting [1], the AC50 is 5.8 µM [rising, partial curve].

Take `COCCN(C(=O)c1snc(C(N)=O)c1N)C(C(=O)NC1CCCCC1)c1ccc(OC)c(OC)c1` (configuration not stated): the cell number change came to 34%. Further, the concentration at half-maximal activity (AC50) under setting [2] was 29.1 µM [rising, single point]. Further, under setting [1], the AC50 was 0.326 µM [rising, full curve].

For the molecule `O=S(=O)(CCc1nc2ccccc2o1)c1ccc(Cl)cc1`, the cell number change turned out to be 13%. The concentration at half-maximal activity (AC50) under setting [1] was 14.6 µM [falling, partial curve].

Take `Nc1ccccc1Oc1ccc2ccccc2c1`: the cell number change was -11.9%. In addition, under setting [2], the AC50 is 6.51 µM [rising, single point].

With `O=[N+]([O-])c1cc(C(F)(F)F)ccc1NCCCCNS(=O)(=O)c1ccc(Cl)cc1`, under setting [1], the concentration at half-maximal activity (AC50) was 14.6 µM [falling, partial curve, poor fit].

For the molecule `Cc1ccc(SSc2cc(C)ccc2N)c(N)c1`, the cell number change was -93.3%. Under setting [2], the AC50 was 32.6 µM [falling, partial curve, poor fit]. Moreover, the half-maximal activity concentration (AC50) under setting [1] was 29.1 µM [falling, partial curve, poor fit].

For `CS(=O)(=O)N1CCC(C(=O)N2CCN(C(c3ccccc3)c3ccccc3)CC2)CC1`, the AC50 reads like this: under setting [2], 0.13 µM [falling, full curve]; under setting [1], 0.146 µM [falling, full curve, poor fit].

For the molecule `O=C(Nc1ccc(F)cc1)c1nc2c(nnn2Cc2cccc3ccccc23)c(=O)[nH]1`, the cell number change turned out to be 42.9%. Under setting [2], the AC50 is 23.1 µM [rising, single point]. The AC50 under setting [1] is 23.1 µM [rising, single point].

`COc1cccc2c(=O)n(CC(=O)Nc3cccc(F)c3)ccc12`: the cell number change came out at 78.2%. In addition, under setting [2], the AC50 was 2.31 µM [rising, full curve]. Also, under setting [1], the AC50 is 2.31 µM [rising, full curve].

As for `S=c1nc(NCc2ccc3c(c2)OCO3)c2ccccc2[nH]1`, the cell number change was -5.19%. Further, the AC50 under setting [1] is 20.6 µM [falling, single point].

On to `COC(=O)N1C(=O)[C@](c2ccc(OC)cc2)(C(C)C)N1C(=O)OC`, for which the cell number change was -9.88%. Further, the AC50 under setting [1] was 0.116 µM [falling, full curve, poor fit].

Take `CCCCCn1ccc(=O)c2c(C(F)(F)F)nccc21`: the cell number change was -17.3%. For the same molecule, the AC50 under setting [1] is 29.1 µM [falling, single point].

For `CCOc1ccccc1OCC(=O)OCC(=O)NNC(=O)c1ccc([N+](=O)[O-])cc1`, the cell number change was -13.5%. Moreover, the AC50 under setting [1] was 6.51 µM [falling, single point].

`COc1ccc(-c2cn(Cc3cccc(OC)c3)nn2)cc1`: the cell number change is -9.39%.

For `COCCNC(=O)C(c1ccc(C)o1)N(C(=O)C(=O)NC1CCCCC1)c1ccc(F)cc1` (configuration not stated), the cell number change was -3.32%. For the same molecule, the AC50 under setting [1] was 0.184 µM [rising, full curve, poor fit].

Take `Cc1nc2ccc(C(=O)N3CCN(Cc4ccccc4)CC3)cc2[nH]1`: the cell number change was -19.2%.

`O=C(O)CC(NS(=O)(=O)Cc1ccccc1)c1cccc([N+](=O)[O-])c1` (configuration not stated): the cell number change was 1.3%. For the same molecule, the AC50 under setting [1] was 6.51 µM [rising, single point].

Take `O=C(NCc1ccco1)Nc1cccs1`: the cell number change turned out to be 21.8%. For the same molecule, the AC50 under setting [1] is 0.206 µM [falling, single point].

For the molecule `COC(=O)CNC(=O)CN1C(=O)N(c2cccc(Cl)c2)C(N(O)C(=O)Nc2cccc(Cl)c2)C1(C)C` (configuration not stated), the cell number change was -20.4%.

As to `CCCCC(=O)Nc1ccnc(-c2cccnc2)n1`, the cell number change was -43.4%. In addition, the AC50 under setting [2] is 23.1 µM [falling, partial curve]. For the same molecule, the AC50 under setting [1] was 32.6 µM [falling, partial curve].

The values above are taken from PubChem BioAssay AID2685 (National Center for Advancing Translational Sciences (NCATS), 2010).
